These are yes or no findings as the source states them, for the method shown. In cells and extracts the contact can be indirect. Some entries that bind do so weakly or less than the wild type. Where a sequence is shown, tags or fusion partners need not be part of it.
What was measured:
Assay in all cases: co-IP
[1] = molecular target: (Flag)3-TET1 1-1379 Δ1+2 (mouse) (UniProt Q3URK3)
[2] = molecular target: (Flag)3-TET1 1-1472 (WT) (mouse) (UniProt Q3URK3)
[3] = molecular target: (Flag)3-TET1 1-1472 Δ1+2 (mouse) (UniProt Q3URK3)
[4] = molecular target: (Flag)3-TET1 1-1494 (WT) (mouse) (UniProt Q3URK3)
[5] = molecular target: (Flag)3-TET1 1-1521 Δ1+2 (mouse) (UniProt Q3URK3)
[6] = molecular target: (Flag)3-TET1 1-321 (mouse) (UniProt Q3URK3)
[7] = molecular target: (Flag)3-TET1 734-1181 (mouse) (UniProt Q3URK3)
[8] = molecular target: (Flag)3-TET1 734-1202 (mouse) (UniProt Q3URK3)
[9] = molecular target: (Flag)3-TET1(734-1169) (mouse) (UniProt Q3URK3)
[10] = molecular target: Full-length (Flag)3-TET1 Δ109-120 (Δ1) (mouse) (UniProt Q3URK3)
[11] = molecular target: Full-length (Flag)3-TET1 Δ109-120 + Δ1132-1202 (Δ1+2) (mouse) (UniProt Q3URK3)
[12] = molecular target: Full-length (Flag)3-TET1 Δ1132-1202 (Δ2) (mouse) (UniProt Q3URK3)

By UniProt entry, the sequences of proteins in these tests, tags left out. Where a name states a change or a piece, a line headed by the entry shows the natural chain unless it says otherwise. Residues count along the entry.
UniProt Q3URK3, whole entry, looked up, stated change not applied: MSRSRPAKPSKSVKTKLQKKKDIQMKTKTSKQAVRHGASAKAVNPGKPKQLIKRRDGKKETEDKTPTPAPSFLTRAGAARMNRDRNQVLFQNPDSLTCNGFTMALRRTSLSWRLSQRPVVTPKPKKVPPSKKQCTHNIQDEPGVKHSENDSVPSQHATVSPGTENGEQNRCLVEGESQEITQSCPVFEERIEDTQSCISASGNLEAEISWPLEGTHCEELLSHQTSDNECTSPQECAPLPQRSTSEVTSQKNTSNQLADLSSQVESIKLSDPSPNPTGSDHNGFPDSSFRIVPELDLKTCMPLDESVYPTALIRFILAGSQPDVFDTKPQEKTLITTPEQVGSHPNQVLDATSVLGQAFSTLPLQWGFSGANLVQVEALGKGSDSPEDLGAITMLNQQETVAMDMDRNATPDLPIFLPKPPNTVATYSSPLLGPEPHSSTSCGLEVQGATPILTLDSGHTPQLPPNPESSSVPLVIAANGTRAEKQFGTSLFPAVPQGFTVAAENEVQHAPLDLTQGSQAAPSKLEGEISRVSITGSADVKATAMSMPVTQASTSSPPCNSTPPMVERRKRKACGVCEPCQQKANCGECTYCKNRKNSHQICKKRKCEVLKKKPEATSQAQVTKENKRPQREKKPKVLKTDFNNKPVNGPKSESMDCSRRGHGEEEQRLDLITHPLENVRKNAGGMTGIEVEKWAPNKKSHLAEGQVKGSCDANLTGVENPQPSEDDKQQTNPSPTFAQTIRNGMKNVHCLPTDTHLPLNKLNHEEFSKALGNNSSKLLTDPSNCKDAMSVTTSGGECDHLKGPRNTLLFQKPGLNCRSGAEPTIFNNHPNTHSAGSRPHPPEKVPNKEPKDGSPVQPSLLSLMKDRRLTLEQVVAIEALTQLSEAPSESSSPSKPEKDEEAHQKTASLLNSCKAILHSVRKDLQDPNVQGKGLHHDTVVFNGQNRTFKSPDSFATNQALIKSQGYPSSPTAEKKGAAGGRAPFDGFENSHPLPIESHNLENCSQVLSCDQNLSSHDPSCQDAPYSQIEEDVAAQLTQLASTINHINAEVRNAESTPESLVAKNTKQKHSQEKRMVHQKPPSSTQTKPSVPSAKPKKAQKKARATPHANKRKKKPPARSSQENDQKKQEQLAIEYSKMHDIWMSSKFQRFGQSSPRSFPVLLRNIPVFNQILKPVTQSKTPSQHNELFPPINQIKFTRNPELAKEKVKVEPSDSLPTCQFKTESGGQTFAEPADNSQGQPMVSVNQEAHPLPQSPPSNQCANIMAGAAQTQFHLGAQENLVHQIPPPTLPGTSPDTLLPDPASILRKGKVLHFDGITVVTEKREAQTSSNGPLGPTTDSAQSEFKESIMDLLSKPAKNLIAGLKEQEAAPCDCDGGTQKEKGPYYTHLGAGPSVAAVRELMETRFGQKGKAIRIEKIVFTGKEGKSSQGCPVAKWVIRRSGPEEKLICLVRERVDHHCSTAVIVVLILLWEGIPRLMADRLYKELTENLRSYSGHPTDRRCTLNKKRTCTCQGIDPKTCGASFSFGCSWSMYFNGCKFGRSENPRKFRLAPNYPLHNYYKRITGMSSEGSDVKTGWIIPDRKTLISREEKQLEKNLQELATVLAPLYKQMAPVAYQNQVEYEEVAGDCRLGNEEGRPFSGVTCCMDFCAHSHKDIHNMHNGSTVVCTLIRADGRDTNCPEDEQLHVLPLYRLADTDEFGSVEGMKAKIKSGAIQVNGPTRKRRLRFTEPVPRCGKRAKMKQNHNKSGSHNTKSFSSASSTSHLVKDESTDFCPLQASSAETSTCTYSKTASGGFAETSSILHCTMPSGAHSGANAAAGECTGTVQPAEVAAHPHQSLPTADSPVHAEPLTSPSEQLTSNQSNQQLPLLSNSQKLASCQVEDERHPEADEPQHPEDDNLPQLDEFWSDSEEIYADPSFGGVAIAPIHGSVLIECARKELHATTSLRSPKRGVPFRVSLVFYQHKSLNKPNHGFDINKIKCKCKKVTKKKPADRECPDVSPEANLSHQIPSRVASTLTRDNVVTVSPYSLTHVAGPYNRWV
UniProt Q3URK3, 1-321: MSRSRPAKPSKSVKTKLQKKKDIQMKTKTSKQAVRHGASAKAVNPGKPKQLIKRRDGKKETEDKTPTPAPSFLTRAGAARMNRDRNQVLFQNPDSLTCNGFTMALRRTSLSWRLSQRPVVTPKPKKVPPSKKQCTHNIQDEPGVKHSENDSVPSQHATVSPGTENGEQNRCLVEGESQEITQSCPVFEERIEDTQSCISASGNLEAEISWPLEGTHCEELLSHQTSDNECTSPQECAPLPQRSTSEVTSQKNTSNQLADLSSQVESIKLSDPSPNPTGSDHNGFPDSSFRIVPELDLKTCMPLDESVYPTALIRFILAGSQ
UniProt Q3URK3, 1-1472: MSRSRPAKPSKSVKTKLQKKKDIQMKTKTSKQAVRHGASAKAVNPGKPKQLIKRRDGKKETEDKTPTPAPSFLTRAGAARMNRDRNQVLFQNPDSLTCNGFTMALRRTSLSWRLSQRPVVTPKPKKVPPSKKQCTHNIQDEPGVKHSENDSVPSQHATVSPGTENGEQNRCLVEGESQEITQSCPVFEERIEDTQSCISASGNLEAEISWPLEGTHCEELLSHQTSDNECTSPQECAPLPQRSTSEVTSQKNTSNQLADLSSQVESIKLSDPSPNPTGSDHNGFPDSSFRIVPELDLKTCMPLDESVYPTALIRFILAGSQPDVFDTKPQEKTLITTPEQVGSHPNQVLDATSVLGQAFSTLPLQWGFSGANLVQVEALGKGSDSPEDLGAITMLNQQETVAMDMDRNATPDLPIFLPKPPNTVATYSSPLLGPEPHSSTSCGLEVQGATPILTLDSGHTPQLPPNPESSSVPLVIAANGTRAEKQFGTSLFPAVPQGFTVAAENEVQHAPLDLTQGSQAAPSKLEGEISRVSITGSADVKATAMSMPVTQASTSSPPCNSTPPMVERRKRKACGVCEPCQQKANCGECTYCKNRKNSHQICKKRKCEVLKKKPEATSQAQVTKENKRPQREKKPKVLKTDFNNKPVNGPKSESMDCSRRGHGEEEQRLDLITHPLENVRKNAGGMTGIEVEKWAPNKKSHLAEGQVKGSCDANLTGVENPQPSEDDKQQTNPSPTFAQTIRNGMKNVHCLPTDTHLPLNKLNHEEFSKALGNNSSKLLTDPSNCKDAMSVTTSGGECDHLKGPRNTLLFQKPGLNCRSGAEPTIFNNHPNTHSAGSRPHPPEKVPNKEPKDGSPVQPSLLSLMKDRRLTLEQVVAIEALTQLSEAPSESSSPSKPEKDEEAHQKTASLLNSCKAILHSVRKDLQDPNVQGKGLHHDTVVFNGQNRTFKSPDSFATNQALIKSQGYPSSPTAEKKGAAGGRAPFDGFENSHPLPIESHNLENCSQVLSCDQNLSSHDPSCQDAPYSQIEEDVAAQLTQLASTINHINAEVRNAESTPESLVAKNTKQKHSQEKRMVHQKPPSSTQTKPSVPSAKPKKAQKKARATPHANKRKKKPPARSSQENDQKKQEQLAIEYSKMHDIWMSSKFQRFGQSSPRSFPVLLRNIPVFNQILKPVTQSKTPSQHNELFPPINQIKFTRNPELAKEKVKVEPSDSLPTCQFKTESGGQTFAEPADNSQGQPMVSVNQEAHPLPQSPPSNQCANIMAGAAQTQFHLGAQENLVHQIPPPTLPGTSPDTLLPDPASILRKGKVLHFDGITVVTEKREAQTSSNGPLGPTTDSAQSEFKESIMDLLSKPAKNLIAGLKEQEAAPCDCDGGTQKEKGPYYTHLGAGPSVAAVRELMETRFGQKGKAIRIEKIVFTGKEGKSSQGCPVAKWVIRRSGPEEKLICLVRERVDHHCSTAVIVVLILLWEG
UniProt Q3URK3, 1-1494: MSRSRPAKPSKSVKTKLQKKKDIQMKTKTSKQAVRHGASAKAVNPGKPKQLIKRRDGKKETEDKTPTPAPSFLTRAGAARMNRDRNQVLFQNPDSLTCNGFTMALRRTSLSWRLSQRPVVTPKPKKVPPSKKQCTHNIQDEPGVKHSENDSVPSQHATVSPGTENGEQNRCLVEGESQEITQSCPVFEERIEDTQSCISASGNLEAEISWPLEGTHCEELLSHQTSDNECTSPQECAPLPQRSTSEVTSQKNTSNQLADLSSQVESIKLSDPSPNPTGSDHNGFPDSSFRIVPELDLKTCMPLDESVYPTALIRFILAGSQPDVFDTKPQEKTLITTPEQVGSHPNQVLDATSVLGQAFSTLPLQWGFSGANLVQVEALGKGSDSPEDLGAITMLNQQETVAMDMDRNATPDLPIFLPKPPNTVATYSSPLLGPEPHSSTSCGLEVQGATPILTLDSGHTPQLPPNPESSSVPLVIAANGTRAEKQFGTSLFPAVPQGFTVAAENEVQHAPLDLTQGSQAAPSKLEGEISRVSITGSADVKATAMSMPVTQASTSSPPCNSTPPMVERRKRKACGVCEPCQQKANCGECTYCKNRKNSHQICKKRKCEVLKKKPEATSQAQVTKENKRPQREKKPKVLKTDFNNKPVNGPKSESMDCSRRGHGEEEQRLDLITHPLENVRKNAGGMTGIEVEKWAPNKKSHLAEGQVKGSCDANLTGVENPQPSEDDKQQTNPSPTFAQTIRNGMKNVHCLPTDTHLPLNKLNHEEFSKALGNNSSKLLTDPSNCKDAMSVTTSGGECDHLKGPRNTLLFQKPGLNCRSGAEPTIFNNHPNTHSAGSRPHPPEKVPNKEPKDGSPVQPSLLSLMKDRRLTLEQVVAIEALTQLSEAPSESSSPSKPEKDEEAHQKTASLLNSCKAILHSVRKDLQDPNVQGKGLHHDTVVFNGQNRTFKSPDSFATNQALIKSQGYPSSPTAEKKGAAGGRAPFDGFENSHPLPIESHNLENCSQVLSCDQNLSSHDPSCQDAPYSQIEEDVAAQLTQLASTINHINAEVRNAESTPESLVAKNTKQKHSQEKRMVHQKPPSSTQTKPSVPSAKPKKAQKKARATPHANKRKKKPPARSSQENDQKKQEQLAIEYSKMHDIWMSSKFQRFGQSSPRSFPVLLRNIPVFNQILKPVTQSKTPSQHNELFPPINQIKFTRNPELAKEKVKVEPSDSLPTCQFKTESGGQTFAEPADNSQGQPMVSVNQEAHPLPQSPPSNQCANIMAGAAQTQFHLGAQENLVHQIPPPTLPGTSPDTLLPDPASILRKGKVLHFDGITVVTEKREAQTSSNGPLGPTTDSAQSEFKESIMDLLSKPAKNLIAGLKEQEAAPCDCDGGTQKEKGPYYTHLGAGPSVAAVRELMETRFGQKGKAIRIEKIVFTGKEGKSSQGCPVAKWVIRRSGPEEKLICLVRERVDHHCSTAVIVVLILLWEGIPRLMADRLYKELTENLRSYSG
UniProt Q3URK3, 734-1169: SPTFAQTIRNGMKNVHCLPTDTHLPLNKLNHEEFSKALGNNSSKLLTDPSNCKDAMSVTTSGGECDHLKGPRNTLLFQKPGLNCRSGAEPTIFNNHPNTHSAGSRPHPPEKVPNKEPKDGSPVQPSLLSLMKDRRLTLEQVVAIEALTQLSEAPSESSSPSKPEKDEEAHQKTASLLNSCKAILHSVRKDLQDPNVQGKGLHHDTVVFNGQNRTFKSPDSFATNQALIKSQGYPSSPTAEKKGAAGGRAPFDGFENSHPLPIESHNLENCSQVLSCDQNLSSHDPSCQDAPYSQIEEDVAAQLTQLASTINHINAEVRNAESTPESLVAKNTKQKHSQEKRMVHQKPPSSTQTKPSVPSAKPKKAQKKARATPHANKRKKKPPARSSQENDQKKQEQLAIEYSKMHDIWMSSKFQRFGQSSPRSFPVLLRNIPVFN
UniProt Q3URK3, 734-1181: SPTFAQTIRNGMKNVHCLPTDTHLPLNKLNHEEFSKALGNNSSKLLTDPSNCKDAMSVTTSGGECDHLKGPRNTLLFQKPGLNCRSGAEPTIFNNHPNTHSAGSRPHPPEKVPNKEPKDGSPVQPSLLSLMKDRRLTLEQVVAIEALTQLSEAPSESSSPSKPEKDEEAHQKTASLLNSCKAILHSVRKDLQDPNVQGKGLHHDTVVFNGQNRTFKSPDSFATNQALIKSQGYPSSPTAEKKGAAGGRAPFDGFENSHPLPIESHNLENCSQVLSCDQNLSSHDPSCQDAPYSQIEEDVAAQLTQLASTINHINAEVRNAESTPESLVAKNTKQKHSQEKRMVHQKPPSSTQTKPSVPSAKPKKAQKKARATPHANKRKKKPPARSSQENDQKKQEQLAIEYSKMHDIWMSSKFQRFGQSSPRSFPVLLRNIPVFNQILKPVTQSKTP

binding [1]: no binding
binding [2]: binds weakly
binding [3]: no binding
binding [4]: binds weakly
binding [5]: no binding
binding [6]: binds
binding [7]: binds
binding [8]: binds
binding [9]: binds
binding [10]: binds
binding [11]: binds
binding [12]: binds
B1: (HA)3-NANOG (protein, UniProt Q80Z64 1-305)
chain: MSVGLPGPHSLPSSEEASNSGNASSMPAVFHPENYSCLQGSATEMLCTEAASPRPSSEDLPLQGSPDSSTSPKQKLSSPEADKGPEEEENKVLARKQKMRTVFSQAQLCALKDRFQKQKYLSLQQMQELSSILNLSYKQVKTWFQNQRMKCKRWQKNQWLKTSNGLIQKGSAPVEYPSIHCSYPQGYLVNASGSLSMWGSQTWTNPTWSSQTWTNPTWNNQTWTNPTWSSQAWTAQSWNGQPWNAAPLHNFGEDFLQPYVQLQQNFSASDLEVNLEATRESHAHFSTPQALELFLNYSVTPPGEI

From doi:10.1101/2020.06.29.177584
